Source: paper PMC3691119
Results are given in words; binding and its absence hold for the method and conditions named. Binding seen in cells or lysates may run through a third protein. Some results given as binding are weak or reduced against the parent protein; the word gives no strength. Tags and fused reporters may be left off the sequences shown.

Experiments:
Chtop-ECFP [1] = target: T1, Chtop-ECFP (UniProt Q9Y3Y2); assay: FRET or BRET; sensitized emission FRET (normalized FRET, NFRET) in live HeLa cells; ECFP fusion donor, EYFP fusion acceptor; mean over the whole nucleus; NFRET >5% taken as a significant interaction; cells also imaged after 2 h 10 ug/ml actinomycin D
T1 sequence: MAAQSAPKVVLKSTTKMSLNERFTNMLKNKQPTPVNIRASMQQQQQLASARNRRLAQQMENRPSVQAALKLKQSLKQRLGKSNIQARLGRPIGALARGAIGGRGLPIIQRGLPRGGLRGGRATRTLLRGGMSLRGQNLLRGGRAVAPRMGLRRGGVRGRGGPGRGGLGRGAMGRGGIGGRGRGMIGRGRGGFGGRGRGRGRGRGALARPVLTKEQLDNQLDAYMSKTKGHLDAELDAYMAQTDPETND

Chtop-ECFP [2] = target: T1, Chtop-ECFP; assay: FRET or BRET; FLIM-FRET (TCSPC, multiphoton excitation 850 nm) in live HeLa cells without Adox; ECFP fusion donor, EYFP fusion acceptor; FRET efficiency as mean over the whole nucleus; >5% taken as a significant interaction; cells also imaged after actinomycin D

binding (Chtop-ECFP [2]): binds
B1: Nxf1C-terminus-EYFP (domain or fragment, UniProt Q9UBU9 372-619)
chain: PCKGSYFGTENLKSLVLHFLQQYYAIYDSGDRQGLLDAYHDGACCSLSIPFIPQNPARSSLAEYFKDSRNVKKLKDPTLRFRLLKHTRLNVVAFLNELPKTQHDVNSFVVDISAQTSTLLCFSVNGVFKEVDGKSRDSLRAFTRTFIAVPASNSGLCIVNDELFVRNASSEEIQRAFAMPAPTPSSSPVPTLSPEQQEMLQAFSTQSGMNLEWSQKCLQDNNWDYTRSAQAFTHLKAKGEIPEVAFMK
binding (Chtop-ECFP [1]): binds
